Percent effect of library compounds

Sequences of proteins named here, by UniProt entry; tags and fusion partners are left off. Residues count along the entry.
UniProt I6X8D2, whole entry: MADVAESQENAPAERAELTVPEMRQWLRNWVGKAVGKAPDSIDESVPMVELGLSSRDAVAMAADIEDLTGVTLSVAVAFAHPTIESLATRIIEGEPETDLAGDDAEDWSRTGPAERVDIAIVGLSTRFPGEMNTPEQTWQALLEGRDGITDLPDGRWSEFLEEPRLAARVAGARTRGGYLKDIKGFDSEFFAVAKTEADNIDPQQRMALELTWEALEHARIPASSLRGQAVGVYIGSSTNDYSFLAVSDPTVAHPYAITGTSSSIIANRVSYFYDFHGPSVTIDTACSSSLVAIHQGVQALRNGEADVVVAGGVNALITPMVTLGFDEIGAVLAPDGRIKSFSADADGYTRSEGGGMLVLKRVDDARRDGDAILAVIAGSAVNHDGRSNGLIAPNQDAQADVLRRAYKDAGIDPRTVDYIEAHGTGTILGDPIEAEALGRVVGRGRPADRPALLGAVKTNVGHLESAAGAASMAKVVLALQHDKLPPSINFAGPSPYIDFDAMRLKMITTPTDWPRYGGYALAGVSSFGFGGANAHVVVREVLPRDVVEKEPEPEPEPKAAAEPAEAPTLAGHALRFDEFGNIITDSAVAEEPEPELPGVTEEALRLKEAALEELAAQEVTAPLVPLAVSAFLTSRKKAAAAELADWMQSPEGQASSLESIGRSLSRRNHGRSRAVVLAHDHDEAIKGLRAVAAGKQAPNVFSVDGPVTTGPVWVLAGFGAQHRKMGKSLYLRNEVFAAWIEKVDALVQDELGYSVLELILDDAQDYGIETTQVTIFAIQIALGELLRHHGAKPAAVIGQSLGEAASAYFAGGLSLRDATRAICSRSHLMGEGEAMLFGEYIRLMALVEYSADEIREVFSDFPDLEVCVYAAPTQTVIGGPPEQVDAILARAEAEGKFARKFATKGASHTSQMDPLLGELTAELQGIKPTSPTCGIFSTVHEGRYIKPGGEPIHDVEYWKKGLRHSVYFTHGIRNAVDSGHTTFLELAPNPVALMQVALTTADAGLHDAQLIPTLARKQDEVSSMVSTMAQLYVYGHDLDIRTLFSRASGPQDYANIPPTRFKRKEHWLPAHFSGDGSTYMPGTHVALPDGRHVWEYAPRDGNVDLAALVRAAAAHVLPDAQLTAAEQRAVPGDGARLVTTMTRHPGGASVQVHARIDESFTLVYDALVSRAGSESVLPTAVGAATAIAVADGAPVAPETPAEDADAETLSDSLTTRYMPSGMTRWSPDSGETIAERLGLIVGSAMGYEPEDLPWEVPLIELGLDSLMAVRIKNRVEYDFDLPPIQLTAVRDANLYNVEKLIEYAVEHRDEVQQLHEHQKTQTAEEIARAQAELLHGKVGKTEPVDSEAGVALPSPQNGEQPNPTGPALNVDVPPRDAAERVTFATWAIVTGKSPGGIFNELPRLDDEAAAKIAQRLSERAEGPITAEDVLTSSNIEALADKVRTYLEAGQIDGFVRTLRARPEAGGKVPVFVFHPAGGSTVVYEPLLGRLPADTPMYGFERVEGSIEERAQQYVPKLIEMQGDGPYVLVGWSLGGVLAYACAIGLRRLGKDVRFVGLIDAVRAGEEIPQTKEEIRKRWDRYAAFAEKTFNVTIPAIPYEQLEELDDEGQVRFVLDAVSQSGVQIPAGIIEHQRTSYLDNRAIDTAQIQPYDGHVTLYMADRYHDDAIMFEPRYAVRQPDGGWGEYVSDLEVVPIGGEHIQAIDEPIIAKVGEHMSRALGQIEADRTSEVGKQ
UniProt A4I591, 1-473: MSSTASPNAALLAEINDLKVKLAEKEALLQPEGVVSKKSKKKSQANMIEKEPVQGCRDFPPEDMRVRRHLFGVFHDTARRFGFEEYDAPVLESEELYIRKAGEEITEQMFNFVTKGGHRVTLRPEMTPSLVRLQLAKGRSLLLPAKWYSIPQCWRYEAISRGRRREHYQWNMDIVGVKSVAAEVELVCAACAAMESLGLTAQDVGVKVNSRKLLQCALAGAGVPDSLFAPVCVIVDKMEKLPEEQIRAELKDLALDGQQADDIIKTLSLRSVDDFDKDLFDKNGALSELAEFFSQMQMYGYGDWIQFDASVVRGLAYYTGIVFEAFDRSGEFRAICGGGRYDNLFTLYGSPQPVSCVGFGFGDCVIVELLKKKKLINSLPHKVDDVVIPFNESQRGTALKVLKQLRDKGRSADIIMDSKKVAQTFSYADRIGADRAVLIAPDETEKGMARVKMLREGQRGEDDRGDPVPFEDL

Source: ChEMBL document CHEMBL3988442, “University of Dundee, Small-Polar-MMV Screening Library” (2021).

Pks13 thioesterase: 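Enzyme assay of the thioesterase domain of polyketide synthase 13; the read-out is not stated. Target: Polyketide synthase Pks13, Mycobacterium tuberculosis (UniProt I6X8D2). Tested at 30 µM. The record gives no direction; the compounds picked for IC50 retests had high values, so higher reads as stronger inhibition. Size under these conditions: about 67,000 compounds, about 300 of them at 50% or above in at least one test.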
LiHisRS: 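Enzyme assay of histidyl-tRNA synthetase; the read-out is not stated. Target: Histidine-tRNA ligase, Leishmania infantum (UniProt A4I591). Compounds at 30 µM. The record gives no direction; compounds that gave an IC50 in retests scored well above the rest, so higher reads as stronger inhibition. The assay is labelled LdHisRS but filed under L. infantum. About 69,000 compounds were tested under these conditions; 0.6% (about 410) showed 50% or more at least once.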

Values are the deposited “Percent Effect”, in %.
How 0% and 100% were set is not recorded. Most values in the screen are low, and negative values occur.
The compounds are a random part of those screened.

O=C(c1ccccc1Cl)N1CCN(CCc2ccccn2)CC1 read Pks13 thioesterase: 1.294%; LiHisRS: 18.42%.
Nc1nccc(NCc2cc3n(n2)CCCN(C2CCCCC2)C3)n1 read Pks13 thioesterase: 34.25%; LiHisRS: 17.14%.
CN(Cc1ccccc1F)C(=O)CS(=O)(=O)Cc1ccc(Cl)c(Cl)c1 read Pks13 thioesterase: -3.359%; LiHisRS: -61.33%.
NS(=O)(=O)c1ccc(NCc2ccco2)c2ncccc12 read Pks13 thioesterase: -24.3%; LiHisRS: 4%.
Cc1ccc(CNC(=O)C2CCN(C(=O)c3ccco3)CC2)n1C read Pks13 thioesterase: 0.5891%; LiHisRS: 18.42%.
COc1cccc(COCC(=O)N2CCCC2Cn2cccn2)c1 (configuration not stated) read Pks13 thioesterase: -7.082%; LiHisRS: 11.5%.
Cc1ccccc1CC1(C(=O)O)CCCN(c2ncnc3[nH]ccc23)C1 (configuration not stated) read LiHisRS: 9.836%.
COCCNC(=O)NCc1ccc(-n2ccc(C(F)(F)F)n2)cc1 read Pks13 thioesterase: 1.656%; LiHisRS: 20%.
CC(=O)N1CCC(Cc2cnc(-n3ccnc3)cn2)CC1 read Pks13 thioesterase: 5.508%; LiHisRS: 9.474%.
COc1ccc(-c2nonc2N)cc1 read Pks13 thioesterase: -7.193%; LiHisRS: 6.186%.
COCC(=O)NCCC(=O)N1CCN(S(=O)(=O)c2cccc(Br)c2)CC1 read Pks13 thioesterase: -0.2704%; LiHisRS: 10.26%.
O=C(CN1CCCC(Cn2cncn2)C1)NCCOc1ccccc1 (configuration not stated) read Pks13 thioesterase: -5.161%; LiHisRS: 1.351%.
Cc1cccc2[nH]c(C3CCN(C(=O)c4cnc(O)cc4O)CC3)nc12 read Pks13 thioesterase: -9.587%; LiHisRS: 8.8%.
COc1ccc(CN(C)CCS(=O)(=O)c2ccc(Cl)cc2)cc1OC read Pks13 thioesterase: -16.26%; LiHisRS: 13.51%.
CC(C)OCCCNC(=O)[C@@]12CNC[C@@H]1CN(S(C)(=O)=O)C2 read Pks13 thioesterase: 6.328%; LiHisRS: -3.226%.
CC(C)C1CN(C(=O)c2ccsc2)CCS1 (configuration not stated) read Pks13 thioesterase: -5.172%; LiHisRS: 3.226%.
CC(=O)N(C)c1nc(CN2CCOC(Cn3cc(C)cn3)C2)cs1 (configuration not stated) read Pks13 thioesterase: -36.87%; LiHisRS: 21.33%.
Cc1ccsc1C(=O)N1CC2CC1(C(=O)NCc1ccco1)C2 read Pks13 thioesterase: -47.17%; LiHisRS: 11.65%.
Cn1nc(COc2cncnc2)c2c1CCN(Cc1ccco1)C2 read Pks13 thioesterase: 12.63%; LiHisRS: 7.895%.
CCc1nnc2n1CCN(C(=O)Cc1csc(-c3ccco3)n1)C2 read Pks13 thioesterase: -19.59%; LiHisRS: 10.11%.
CC(C)COCC1CN(Cc2ccoc2)Cc2ncn(C)c21 (configuration not stated) read Pks13 thioesterase: -48.72%; LiHisRS: 17.81%.
c1coc(-c2nc(CN3CCCC(Cn4cncn4)C3)cs2)c1 (configuration not stated) read Pks13 thioesterase: -6.801%; LiHisRS: 23.68%.
O=C(NCc1cccs1)C1CNCC12CCOCC2 (configuration not stated) read LiHisRS: 22.22%.
O=C(N[C@@H]1CC[C@@H](N2CCOCC2)[C@@H]1O)c1cnn2cccnc12 read Pks13 thioesterase: 3.609%; LiHisRS: 3.158%.
O=C(NCC1CCOCC1)[C@@H]1C[C@@H]2[C@@H](CCN2Cc2nccs2)O1 read Pks13 thioesterase: -16.65%; LiHisRS: 22.94%.
CC(=O)N1C[C@H]2C3(CCN(S(C)(=O)=O)CC3)CC[C@@]2(C(=O)N(C)C)C1 read Pks13 thioesterase: -9.97%; LiHisRS: 7.692%.
NC(=O)c1ccc(CN2CCC(N3CCCCC3)CC2)cc1 read Pks13 thioesterase: -17.32%; LiHisRS: 17.65%.

Repeated from the top, 3 entries:

SMILES	Pks13 thioesterase	LiHisRS
O=C(c1ccccc1Cl)N1CCN(CCc2ccccn2)CC1	1.294	18.42
Nc1nccc(NCc2cc3n(n2)CCCN(C2CCCCC2)C3)n1	34.25	17.14
CN(Cc1ccccc1F)C(=O)CS(=O)(=O)Cc1ccc(Cl)c(Cl)c1	-3.359	-61.33